Source: article PMC5347724
Results are given in words; binding and its absence hold for the method and conditions named. Binding seen in cells or lysates may run through a third protein. Some entries that bind do so weakly or less than the wild type.

Chains of the proteins cited; added tags and fusions are not shown.
UniProt Q15561: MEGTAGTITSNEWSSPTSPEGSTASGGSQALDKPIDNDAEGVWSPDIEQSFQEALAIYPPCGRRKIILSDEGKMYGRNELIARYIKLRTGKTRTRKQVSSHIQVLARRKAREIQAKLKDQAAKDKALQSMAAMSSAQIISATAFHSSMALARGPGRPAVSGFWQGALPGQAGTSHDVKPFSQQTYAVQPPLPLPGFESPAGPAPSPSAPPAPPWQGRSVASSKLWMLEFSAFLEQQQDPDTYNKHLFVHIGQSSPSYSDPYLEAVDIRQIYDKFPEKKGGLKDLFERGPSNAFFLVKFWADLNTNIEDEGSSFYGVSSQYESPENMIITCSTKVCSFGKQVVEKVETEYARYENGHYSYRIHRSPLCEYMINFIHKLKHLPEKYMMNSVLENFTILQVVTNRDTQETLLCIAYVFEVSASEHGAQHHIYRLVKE
UniProt Q9GZV5: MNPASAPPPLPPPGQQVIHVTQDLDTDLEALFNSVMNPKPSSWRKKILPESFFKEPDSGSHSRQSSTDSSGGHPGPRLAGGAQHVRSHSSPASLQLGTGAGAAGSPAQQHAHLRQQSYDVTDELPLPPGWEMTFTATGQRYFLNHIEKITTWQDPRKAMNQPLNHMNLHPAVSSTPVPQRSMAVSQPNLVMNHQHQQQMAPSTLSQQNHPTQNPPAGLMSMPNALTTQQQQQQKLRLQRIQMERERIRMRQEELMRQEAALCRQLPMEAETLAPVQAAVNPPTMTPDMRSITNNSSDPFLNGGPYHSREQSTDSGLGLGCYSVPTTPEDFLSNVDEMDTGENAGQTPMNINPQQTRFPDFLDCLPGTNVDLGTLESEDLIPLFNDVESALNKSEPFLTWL

Target: TEAD4 (human (endogenous in LN229)) (UniProt Q15561)
Experiment: co-IP; LN229 cell extracts precleared with control IgG and Protein A/G plus Agarose; precipitated with antibodies against TAZ or TEAD4 and Protein A/G plus Agarose overnight; washed with PBS; Western blotting

- binding: binds
Substance: transcriptional coactivator with PDZ-binding motif (TAZ) (from UniProt Q9GZV5 1-400)
